From PMC5612113 come the findings set out here.

Holding throughout (experiment): Tango membrane protein-protein interaction assay; one partner fused to TEV protease, the other to TEV site–rTA, co-expressed in PS1/PS2-deleted HTL cells; released rTA drives a luciferase reporter; normalised to Renilla luciferase, WT set at 100%
Background: In a reporter assay the amount or activity of a reporter protein is the signal.

In assay [1] the target is Notch3 TM helix-containing fragment, Notch3(1629–1675) (human) (UniProt Q9UM47).
The target in assay [2] is Notch2 TM helix-containing fragment, Notch2(1666–1710) (human) (UniProt Q04721).
In assay [3] the target is Notch4 TM helix-containing fragment, Notch4(1432–1481) (human) (UniProt Q99466).

Results are given in words; binding and its absence hold for the method and conditions named. Some results given as binding are weak or reduced against the parent protein; the word gives no strength.

VRGEPLEPPEPSVPLLPLLVAGAVLLLVILVLGVMVARRKREHSTLW (domain or fragment, UniProt Q9UM47 1629-1675) [Notch3 TM helix-containing fragment, Notch3(1629–1675)]: in assay [1], the binding entry is reported as “binds”.

As for VVSESLTPERTQLLYLLAVAVVIILFIILLGVIMAKRKRKHGSLW (domain or fragment, UniProt Q04721 1666-1710) [Notch2 TM helix-containing fragment, Notch2(1666–1710)], the binding result in assay [2] is given as “binds”.

Take VHPHAGTAPPANQLPWPVLCSPVAGVILLALGALLVLQLIRRRRREHGAL (domain or fragment, UniProt Q99466 1432-1481) [Notch4 TM helix-containing fragment, Notch4(1432–1481)]: the binding result in assay [3] was “binds”.
